Assay results from patent US10159738B2, “Organic-inorganic hybrid solid having a modified outer surface” (CENTRE NATIONAL DE LA RECHERCHE SCIENTIFIQUE-CNRS, priority 2012, dated 2018).

Test: ITC characterization of interaction with MIL-100
Conditions: aqueous suspension of MIL-100 1.5 mg/ml

| Compound | ITC signal on titration into MIL-100 suspension |
| --- | --- |
| OC[C@H]1O[C@@H]2O[C@H]3[C@H](O)[C@@H](O)[C@@H](O[C@H]4[C@H](O)[C@@H](O)[C@@H](O[C@H]5[C@H](O)[C@@H](O)[C@@H](O[C@H]6[C@H](O)[C@@H](O)[C@@H](O[C@H]7[C@H](O)[C@@H](O)[C@@H](O[C@H]8[C@H](O)[C@@H](O)[C@@H](O[C@H]1[C@H](O)[C@H]2O)O[C@@H]8CO)O[C@@H]7CO)O[C@@H]6CO)O[C@@H]5CO)O[C@@H]4CO)O[C@@H]3CO [βCD, β cyclodextrin] | no signal was observed |
| β cyclodextrin phosphate [βCDP] | complex reaction, involving exothermic and endothermic effects |
